Some of the results follow. These are further read-outs of the screen, such as a control signal, another cell line or another target. No call is given for them. Compounds called inactive in the main read-out are mostly missing here. The note in brackets gives the kind of curve behind each potency; many fits are weak.
Assay: qHTS Assay for Lipid Storage Modulators in Drosophila S3 Cells;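 on cell number change: cells counted by Cell Tracker Red CMTPX staining in the red channel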
Conditions: BODIPY lipid droplet fluorescence, 18-24 h; for cell number change: measured here: cell count max response, cells fed with added oleic acid
How it was run: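 Drosophila S3 cells loaded with oleic acid (400 uM, as added) and compounds at several concentrations; lipid droplets imaged by 488-nm laser-scanning cytometry, 500–530 nm intensity and object ratio to cell channel. Percent activity normalized to 20 uM Triacsin C.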

[1] = measured here: lipid fluorescence (Fed channel) AC50, cells fed with added oleic acid
[2] = measured here: cell number channel AC50, cells fed with added oleic acid

## COc1ccc(NC(=O)c2onc(C)c2Cl)cc1
  cell number change: -15.5%
[1]
  AC50: 29.1 µM [falling, single point]

## CCOC(=O)c1c(N)n[nH]c1-c1ccc(OC)cc1
[2]
  AC50: 0.82 µM [rising, partial curve]
[1]
  AC50: 0.58 µM [rising, full curve]

## CC(C)(C)NC(=O)NC(=O)COC(=O)CCCc1c[nH]c2ccccc12
  cell number change: 32.6%
[2]
  AC50: 0.82 µM [rising, full curve, poor fit]

## CCc1[nH]nc(C(=O)N2CCCC(C(=O)c3cccc(OC(C)C)c3)C2)c1C (stereo not drawn)
  cell number change: -30%
[1]
  AC50: 0.651 µM [falling, single point]

## COc1ccc(C2SCC(=O)N2c2nc3ccccc3s2)cc1 (stereo not drawn)
  cell number change: -0.594%
[1]
  AC50: 20.6 µM [rising, partial curve, poor fit]

## CCc1ccccc1NS(=O)(=O)c1cc2c3c(c1)CCN3C(=O)CC2
  cell number change: -88.9%
[2]
  AC50: 16.4 µM [falling, single point]
[1]
  AC50: 18.4 µM [falling, single point]

## CC1CCN(CCOc2ccc(OCc3ccccc3)cc2)CC1
  cell number change: 2.77%
[1]
  AC50: 0.116 µM [rising, full curve, poor fit]

## O=S(=O)(NNc1nccc(C(F)(F)F)n1)c1cccc(Cl)c1Cl
  cell number change: -18.6%
[1]
  AC50: 9.2 µM [falling, partial curve, poor fit]

## CCN(CC)S(=O)(=O)c1ccc(N/N=C/c2ccc(OC)c(OC)c2OC)nc1
  cell number change: 57%
[2]
  AC50: 29.1 µM [rising, single point]
[1]
  AC50: 1.64 µM [rising, partial curve]

## CCCCNC(=S)N/N=C1\CCCCc2ccccc21
  cell number change: -1.15%
[2]
  AC50: 0.731 µM [rising, single point]

## CCc1noc(C)c1C(=O)NNC(=O)c1cc(OC)c(OC)c(OC)c1
  cell number change: -6.89%
[2]
  AC50: 1.3 µM [falling, partial curve]
[1]
  AC50: 6.51 µM [falling, single point]

## C/C(=N\NC(=O)c1cccc(C)c1)c1ccc(N2CCOCC2)cc1
  cell number change: 51.1%
[2]
  AC50: 9.2 µM [rising, partial curve]
[1]
  AC50: 6.51 µM [rising, single point]

## COc1ccccc1/C=C/C(=O)Nc1cccc(C(C)=O)c1
  cell number change: 15.6%
[1]
  AC50: 4.11 µM [rising, single point]

## CSc1ncccc1C(=O)OCC(=O)Nc1ccc(S(=O)(=O)N2CCCC2)cc1
  cell number change: 5.31%
[1]
  AC50: 2.59 µM [rising, single point]

## CC(C)C[C@H](NC(=O)N1CCn2c1nc1ccccc12)C(=O)N[C@@H](Cc1ccccc1)C(=O)O
  cell number change: 14.2%

Source: PubChem BioAssay AID2685 (National Center for Advancing Translational Sciences (NCATS), 2010)
